The list shows a part of the results. The main result of the screen is listed elsewhere. These columns were measured beside it and carry no call. Most of these compounds were active or inconclusive in the main read-out, so they are no random draw. Words in brackets tell the shape of the fitted curve; partial curves, single points and poor fits give uncertain potencies.
Assay: qHTS Assay to Find Inhibitors of Chronic Active B-Cell Receptor Signaling
Settings: ABC-DLBCL IkBa-CBG/CBR reporter, luminescence ratio (green luciferase fused to IkBa over red control in TMD8 lymphoma cells), 4 h
Summary of the method: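 TMD8 human ABC-DLBCL cells with doxycycline-inducible IκBα–green luciferase fusion and unfused red luciferase, in 0.5% FBS medium; compounds up to 46 uM, 4 h at 37C. Green/red luminescence ratio, filter-overlap corrected, fitted to concentration-response curves.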

[1] = measured here: CBR red luminescence, cell number
[2] = measured here: IkBa-CBG green luminescence

SMILES	AC50 [1]	AC50 [2]
Cc1cc(NC(=O)C2CC(c3cccc(Br)c3)=NO2)no1 (configuration not stated)	1.3 µM [falling, full curve, poor fit]	–
CC1CCCN(CC(O)COCc2ccccc2)C1 (configuration not stated)	31.6 µM [falling, single point]	–
O=C(CN1CCN(S(=O)(=O)c2ccc(Br)cc2)CC1)Nc1ccc(F)cc1	20.6 µM [falling, single point]	–
c1ccc2sc(-c3ccc4c(c3)OCO4)nc2c1	15.8 µM [falling, single point]	–
O=C1NC(SCCCF)=N/C1=C/c1ccc(-n2cncn2)cc1	35.5 µM [rising, single point]	–
COc1ccccc1C(=O)OCc1cc(=O)n2ccsc2n1	18.4 µM [falling, partial curve]	–
Cc1cc(C(=O)N/N=C/c2cccn2C)n[nH]1	4.11 µM [falling, partial curve]	–
O=C(NCC1CCCO1)c1cc(C(=O)c2ccc(Cl)cc2Cl)c[nH]1 (configuration not stated)	35.5 µM [falling, single point]	–
CCOc1ccc2nc(NC(=O)c3cnccn3)sc2c1	5.01 µM [rising, full curve, poor fit]	–
COc1ccccc1NC(=O)CSc1nc2ncccc2[nH]1	15.8 µM [falling, partial curve, poor fit]	–
CN(C)c1ccc(-c2ccc3oc(-c4ccsc4)cc(=O)c3c2)cn1	14.6 µM [rising, partial curve, poor fit]	–
CCn1cc(CN2CCCC(C(=O)Nc3ccc(-c4nc5ccccc5[nH]4)cc3)C2)c(C)n1 (configuration not stated)	8.91 µM [falling, partial curve, poor fit]	–
Cn1c(C(=O)N2CCCC(C(=O)NCCN3CCOCC3)C2)cc2sccc21 (configuration not stated)	20.6 µM [rising, single point]	–
Cc1cccc(OCC(=O)Nc2ccc3c(c2)nc(CCN2CCC(C)CC2)n3C)c1	7.08 µM [falling, full curve]	–
CNC(=O)N(O)C1N(/N=C/c2ccccc2OC)C(=S)SC1(C)C (configuration not stated)	35.5 µM [falling, single point]	–
COc1ccccc1CNC(=O)COc1ccccc1OC	29.1 µM [rising, single point]	–
COCC(=O)Nc1nc2ccc(C)cc2s1	20.6 µM [falling, partial curve, poor fit]	–
C/C(=N\Nc1ccc(Cl)c(C(=O)O)c1)c1ccc2c(c1)OCO2	10 µM [falling, partial curve, poor fit]	–
CCCCCc1c(C)nc(N2CCc3ccccc32)[nH]c1=O	10.3 µM [rising, partial curve]	–
Cc1ccc(NCc2ccc(C)s2)cc1	17.8 µM [rising, single point]	–
CN(C)CCNC(=O)/C(=C/c1ccc(-c2cccc(Cl)c2)o1)NC(=O)c1ccccc1	29.1 µM [falling, single point]	–
CCOC(=O)c1c(C)[nH]c(C(=O)OC/C(O)=C(\C#N)c2nc3ccccc3[nH]2)c1C	25.9 µM [rising, partial curve, poor fit]	–

SMILES	AC50 [1]	AC50 [2]
Cc1ccc(-n2ccnc(SCC(=O)NC3CCCCC3)c2=O)cc1F	20.6 µM [falling, single point]	–
CC/C(=N\NC(=O)Nc1nonc1N)c1ccc(OC)c(OC)c1	14.1 µM [rising, single point]	–
CCN1C(=O)N(CN2CCOCC2)C2C1N(CN1CCOCC1)C(=O)N2CC (configuration not stated)	0.00411 µM [rising, full curve, poor fit]	–
CCN(CC)CCCNC(=O)c1cc2c(-c3ccc(Cl)cc3)nn(C)c2s1	29.1 µM [falling, single point]	–
CCC(C)Nc1nc2c(c(=O)n(C)c(=O)n2C)n1C (configuration not stated)	0.447 µM [falling, full curve]	–
CCOc1ccc(C(=O)c2cccs2)cc1	3.16 µM [rising, full curve, poor fit]	–
Cc1cccc(NC(=O)c2ccc(N3CCCCC3)c([N+](=O)[O-])c2)n1	10 µM [falling, partial curve]	–
Cc1ccc(C(=O)NNC(=O)OC(C)(C)C)c(Cl)c1	4.11 µM [falling, full curve, poor fit]	–
Cc1cc(CNC(=O)Cn2nc(C)c([N+](=O)[O-])c2C)c2ccccc2n1	22.4 µM [rising, single point]	25.1 µM [falling, single point]
Clc1ccc2c(c1)CNc1c(ncnc1N1CCOCC1)O2	6.31 µM [rising, single point]	–
O=C1CC(N(CCc2ccccc2)C(=S)Nc2ccccc2)C(=O)N1c1ccc(Br)cc1 (configuration not stated)	20.6 µM [falling, partial curve, poor fit]	–
CCOc1ccc(N2C(=O)N(Cc3c(F)cccc3Cl)c3ccccc3S2(=O)=O)cc1	15.8 µM [falling, single point]	–
Clc1ccc(C(c2ccccc2)N2CCNCC2)cc1 (configuration not stated)	20.6 µM [falling, single point]	–
COCCn1c(SCc2cnc(-c3ccccc3)s2)nnc1-c1ccncc1	0.501 µM [falling, partial curve, poor fit]	–
NS(=O)(=O)c1ccc(CCNC(=O)C(=O)NCC2OCCN2S(=O)(=O)c2cc(F)ccc2F)cc1 (configuration not stated)	2.24 µM [rising, full curve]	–
C/C(=N\NC(=O)c1ccncc1)c1ccc(N2CCOCC2)cc1	29.1 µM [falling, single point]	–
C[C@H](NC(=O)c1ccccc1)C(=O)Nc1nc(-c2ccccn2)cs1	3.98 µM [falling, full curve, poor fit]	–
COc1ccc(Cn2c(SCC(N)=O)nc3c(sc4ccccc43)c2=O)cc1	3.55 µM [rising, partial curve, poor fit]	–
COC(=O)c1cc(C)sc1NC(=O)C1C2C=CC(CC2)C1C(=O)O (configuration not stated)	8.2 µM [rising, partial curve, poor fit]	–
N#CCn1cnc2c(oc3ccccc32)c1=O	11.2 µM [rising, partial curve, poor fit]	–
COc1ccc(C(=O)Nc2ccccc2C(=O)N/N=C/c2ccco2)cc1	9.2 µM [falling, partial curve]	–
CCN1CCN(S(=O)(=O)c2cccs2)CC1	0.58 µM [falling, partial curve, poor fit]	–

4 entries from above, as comma-separated lines.
SMILES,AC50 [1],AC50 [2]
CC/C(=N\NC(=O)Nc1nonc1N)c1ccc(OC)c(OC)c1,"14.1 µM [rising, single point]",–
CCN1C(=O)N(CN2CCOCC2)C2C1N(CN1CCOCC1)C(=O)N2CC (configuration not stated),"0.00411 µM [rising, full curve, poor fit]",–
CCN(CC)CCCNC(=O)c1cc2c(-c3ccc(Cl)cc3)nn(C)c2s1,"29.1 µM [falling, single point]",–
CCC(C)Nc1nc2c(c(=O)n(C)c(=O)n2C)n1C (configuration not stated),"0.447 µM [falling, full curve]",–

Additional records:

SMILES	AC50 [1]	AC50 [2]
CC(C)(O)c1cc2ccccc2c(=O)o1	4.11 µM [rising, full curve]	–
COc1ccc(S(=O)(=O)N(C)C[C@H]2Oc3ccc(NS(=O)(=O)c4ccc(F)cc4)cc3C(=O)N([C@H](C)CO)C[C@@H]2C)cc1	5.8 µM [rising, partial curve]	–
O=C(COC(=O)c1ccc(O)cc1)Nc1cccc(S(=O)(=O)NC2=NCCC2)c1	2.91 µM [rising, partial curve, poor fit]	–
Cc1c(NC(=O)COC(=O)c2cc(-c3ccc(-c4ccccc4)cc3)nc3ccccc23)c(=O)n(-c2ccccc2)n1C	4.11 µM [rising, single point]	25.9 µM [rising, partial curve, poor fit]
COc1ccc(CCN(C)C(=O)COc2ccc(C(=O)c3ccccc3)cc2)cc1OC	29.1 µM [rising, single point]	–
CCN(CC)CCn1c2c(c(SCC(=O)Nc3nc(C)cs3)nc1=O)CCC2	20.6 µM [falling, single point]	–
O=C(O)CCCCCNC(=O)Nc1ccc2c(c1)OCCO2	2.59 µM [falling, full curve]	–
O=C(CCC1N=C2c3ccccc3N=C(SCc3ccc(Cl)cc3)N2C1=O)NCc1ccco1 (configuration not stated)	6.31 µM [rising, single point]	–
CCOC(=O)N1CCC(NC(=O)CS(=O)(=O)Cc2nc(-c3cccc(Cl)c3)oc2C)CC1	35.5 µM [rising, single point]	–
CC1(C)Oc2ccc(C(=O)N3CCOCC3)cc2N(CC(=O)Nc2ccccc2)C1=O	0.103 µM [rising, full curve, poor fit]	–
O=C(Cn1nnc(-c2cccs2)n1)NCc1ccco1	0.562 µM [rising, full curve, poor fit]	–
CC1CCCCN1C(=O)CSc1nc(C2CC2)nc2ccccc12 (configuration not stated)	6.31 µM [falling, partial curve, poor fit]	–
CCOC(=O)c1[nH]c2ccccc2c1NC(=S)Nc1ccccc1	29.1 µM [falling, single point]	–
CC(C)(C)c1ccc(C(=O)Nc2cccc([N+](=O)[O-])c2)cc1	29.1 µM [falling, single point]	–
O=C(Nc1ccccc1C(=O)Nc1ccc(Br)cn1)c1cccc([N+](=O)[O-])c1	11.2 µM [falling, partial curve]	–
COc1ccc(-c2oc(NC(=O)CCl)c(C#N)c2-c2ccc(OC)cc2)cc1	29.1 µM [falling, single point]	–
NC(=O)c1ccccc1OCC(=O)Nc1ccc(Cl)c(Cl)c1	14.1 µM [falling, single point]	–
CC(O)c1nc2c(c(=O)n(C)c(=O)n2C)n1C (configuration not stated)	12.6 µM [falling, single point]	–
Cc1cc(C(=O)Nc2cccc(O)c2)co1	16.4 µM [falling, partial curve, poor fit]	–
CN(c1cccc2cccnc12)S(=O)(=O)c1ccccc1	35.5 µM [falling, single point]	–
CCCCC(NC(C)=O)c1nc2ccccc2n1CCC (configuration not stated)	3.26 µM [falling, partial curve, poor fit]	–
